These are yes or no findings as the source states them, for the method shown. Some binding calls cover weakened binding; strength is not graded here.
Biological target: Tf receptor 1 (TfR1) on extracellular vesicles (mouse (endogenous in plasma extracellular vesicles)) (UniProt Q62351)
Experiment: passive cargo-loading of extracellular vesicles; extracellular vesicles from mouse plasma containing TfR1 loaded with aTf by two passive cargo-loading strategies; only the binder purified

binding: binds
Substance: human apoTransferrin (aTf) (from UniProt P02787 20-698) (ligand)

Reference: publication PMC8514745
